Screen size: about 1,200 compounds; about 140 (12%) were called active.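 How the source made its calls: active means fitted curve falls past -35% activity change at a dose under twice the top valid dose, in every replicate test; inconclusive means replicate tests disagree on the call; inactive means the rest, including activity in the opposite direction.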 This part holds few or none of the hits.
Assay: CFTR-F508del correctors, dose response, FRT cells, YFP quenching, cherry-pick (AID 743402);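 further: compounds act as correctors raising surface CFTR-F508del before acute activation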
Conditions: FRT CFTR-F508del YFP iodide quenching, 24 h, channel opened with forskolin and a potentiator; at 26 µM (top of the series) unless noted

Activity change, negative = more quenching (active), inactive:
Nc1nn(-c2ccccc2)c(N)c1N=Nc1cccc(F)c1 -3.33%
O=C(NNC(=O)c1ccncc1)Nc1ccc(Cl)cc1 7.42%
N#Cc1ncn(C2OC(CO)C(O)C2O)c1N (centres undefined) 3.33%
COc1cc(/C=C2\SC(=S)N(NC(=O)c3ccncc3)C2=O)ccc1O -30%
O=C(NCCN1C(=O)S/C(=C\c2ccc(OC(F)F)cc2)C1=O)c1cnccn1 3.33%
Clc1cccc(-c2ccc(C=Nc3ccc(N4CCOCC4)cc3)o2)c1Cl 3.33%
Nc1ccccc1C(=O)N1O[C@@H]2C=C[C@H]1C2 4.84%
O=S(=O)(Nc1ccc(F)cc1Cl)c1ccc(-c2cnc(C3CC3)o2)cc1 -22.5%
Cn1c(C(=O)c2ccccc2[N+](=O)[O-])nc2ccccc21 -22.1%
C[C@H]1CN([C@@H](C)CO)S(=O)(=O)c2ccc(C#Cc3ccc(F)cc3)cc2O[C@H]1CN(C)C(=O)NC1CCCC1 10.7%
CCCNC(=O)N1CC2(CN(S(=O)(=O)c3cccc(OC)c3)C2)c2c(n(C)c3cc(OC)ccc23)[C@H]1CO 12.3%
COc1ccc(C(=O)Nc2ccc(NC(=O)c3cccc(F)c3)cn2)cc1 8.01%
CCCC(=O)NC(c1ccc(Cl)cc1)c1ccc2cccnc2c1O (centres undefined) 3.12%
O=C(Cc1ccc(Cl)cc1)OCC(=O)c1ccc[nH]1 3.12%
CCOC(=O)c1oc2ccc(S(=O)(=O)n3nc(-c4ccccc4)cc3N)cc2c1C 5.42%
C[C@H]1CN([C@@H](C)CO)S(=O)(=O)c2ccc(C#Cc3cccc(F)c3)cc2O[C@H]1CN(C)C(=O)NC1CCCCC1 13.6%
Cc1cccc(NC(=O)c2ccccc2NC(=O)C2CCCCC2)c1C -6.67%
CCCCNc1c(-c2ccc(SC(C)CC)c(OC)c2)nc2ccc(C)cn12 (centres undefined) 12.9%
COc1ccc(NC(=O)c2cc(C3CC3)on2)c(OC)c1 10%
COc1ccc(-c2cc(C(F)F)n3ncc(C(=O)N4CCc5ccccc54)c3n2)cc1 -16.7%
Cc1nc(N)[nH]c(=O)c1CCCNS(=O)(=O)c1ccc([N+](=O)[O-])cc1 11.5%
O=C(Cc1ccc(Br)cc1)NCc1ccccc1 -3.12%
O=C(N/N=C/c1c(O)ccc2ccccc12)C(=O)N1CCCC1 3.33%
Cc1cc2c(cc1C)C(c1ccccc1OC(C)C)CC(=O)N2 (centres undefined) 8.01%
Cc1ccc(-c2ccc3c(c2)O[C@H](CN(C)Cc2ccccn2)[C@@H](C)CN([C@@H](C)CO)S3(=O)=O)cc1 3.57%
COc1ccc2c3c(n(C)c2c1)[C@H](CO)N(C(=O)C1CC1)CC31CCN(Cc2cccc(F)c2)CC1 -7.14%
Cc1c(C)c2c(OCC(=O)N3CCC(O)CC3)cc3c(c2oc1=O)CCC(C)(C)O3 13.1%
Cc1cc2nnc(SCC(=O)NCc3ccco3)n2c2ccccc12 10%
Cc1ccc2nc(-c3ccc4c(c3)OCCO4)cn2c1 -13.3%
C[C@H]1CN([C@@H](C)CO)S(=O)(=O)c2ccc(C#CC3CCCCC3)cc2O[C@H]1CN(C)Cc1cccnc1 0%
COc1cc(C(=O)Nc2ccc(C)cc2)c2ccccc2n1 -1.61%
Cn1cc(C(=O)N/N=C/c2ccc3c(c2)OCO3)c2ccccc21 -10%
CC(=NNC(=S)Nc1ccc(C)cc1)c1ccccn1 -3.12%
N=C1/C(=C/c2cccn2CCOc2ccccc2)C(=O)N=C2SC=C(c3ccccc3)N12 -19.4%
O[Si](CCCN1CCCCC1)(c1ccc(F)cc1)C1CCCCC1 (centres undefined) 0%
C[C@H](CO)N1C[C@H](C)[C@H](CN(C)C(=O)NC2CCCC2)Oc2cc(C#Cc3ccc(F)cc3)ccc2S1(=O)=O -7.14%
CC(C)c1ccc(NC(=O)CN2C(=O)NC3(CCCCCCC3)C2=O)cc1 9.79%
CCOc1ccccc1NC(=O)CC1SC(=N)N(c2ccccc2)C1=O (centres undefined) 12.9%
CCOC(=O)N1CCC(NC(=O)c2ccc3c(c2)N=C(C)c2c(C)ccc(C)c2S3)CC1 3.12%
COCC(C)n1c(SCC(=O)N2CC(=O)Nc3ccccc32)nc2ccccc2c1=O (centres undefined) 3.33%
O=C(NN=C1CCCC1)c1[nH]c2ccc(Cl)cc2c1-c1ccccc1 16.7%
COc1cc(C(c2sc3nc(C)nn3c2O)N2CCN(c3ccccc3)CC2)cc(OC)c1OC (centres undefined) 0%
COc1ccc(O)c(/C=N/NC(=O)c2ccc(N3CCCC3=O)cc2)c1 3.33%
Oc1ccc2ccccc2c1C=NNc1ccccn1 -13.3%
C[C@@H]1CN([C@@H](C)CO)S(=O)(=O)c2ccc(C#Cc3ccc(F)cc3)cc2O[C@H]1CN(C)C(=O)c1ccccn1 22.9%
CC1(C)Cc2c(c(-c3ccco3)nc3sc4c(NCCN5CCOCC5)ncnc4c23)CO1 -6.67%
CCC(=O)N1[C@H](CN(CC)C(C)=O)[C@@H](c2ccc(-c3ccccc3)cc2)[C@@H]1CO 10.5% [at 23.5 µM]
O=C(Nc1ccc(F)cc1)N1CCCCN2[C@H](C1)[C@H](c1ccc(-c3cccc(F)c3)cc1)[C@@H]2CO 6.46%
COc1ccc(C)cc1NC(=O)CNC(c1ccccc1)c1ccc(C)cc1 (centres undefined) -3.33%
Cc1ccc(-c2ccc3c(c2)O[C@H](CN(C)Cc2ccccn2)[C@@H](C)CN([C@H](C)CO)S3(=O)=O)cc1 -7.14%
CN(CCOc1ccc(Cl)cc1)C(=O)c1cccc(S(=O)(=O)N2CCN(c3ccccc3)CC2)c1 12.5%
COc1cc(SC)ccc1C(=O)N1CCN(c2ccccc2OC)CC1 15.6%
COc1cccc2cc(C(=O)NCCN3CCOCC3)c(=O)oc12 6.67%
CCCC(=O)NC(c1ccc(N(C)C)cc1)c1ccc2cccnc2c1O (centres undefined) 10.7%
